Experimental data taken from publication PMC5386493.
Results are given in words; binding and its absence hold for the method and conditions named. For part of these data: In cells and extracts the contact can be indirect. Some binding calls cover weakened binding; strength is not graded here. For part of these data: Where a sequence is shown, tags or fusion partners need not be part of it.

The chains behind the UniProt entries cited, without tags or fusion partners. Where a name states a change or a piece, a line headed by the entry shows the natural chain unless it says otherwise. A line that says so, or that is headed by a name, gives the form on record, which may keep a tag or linker. Residues count along the entry.
HA-tagged CARMA2sh (HaCaT) (Q9BXL6, residues 1-740): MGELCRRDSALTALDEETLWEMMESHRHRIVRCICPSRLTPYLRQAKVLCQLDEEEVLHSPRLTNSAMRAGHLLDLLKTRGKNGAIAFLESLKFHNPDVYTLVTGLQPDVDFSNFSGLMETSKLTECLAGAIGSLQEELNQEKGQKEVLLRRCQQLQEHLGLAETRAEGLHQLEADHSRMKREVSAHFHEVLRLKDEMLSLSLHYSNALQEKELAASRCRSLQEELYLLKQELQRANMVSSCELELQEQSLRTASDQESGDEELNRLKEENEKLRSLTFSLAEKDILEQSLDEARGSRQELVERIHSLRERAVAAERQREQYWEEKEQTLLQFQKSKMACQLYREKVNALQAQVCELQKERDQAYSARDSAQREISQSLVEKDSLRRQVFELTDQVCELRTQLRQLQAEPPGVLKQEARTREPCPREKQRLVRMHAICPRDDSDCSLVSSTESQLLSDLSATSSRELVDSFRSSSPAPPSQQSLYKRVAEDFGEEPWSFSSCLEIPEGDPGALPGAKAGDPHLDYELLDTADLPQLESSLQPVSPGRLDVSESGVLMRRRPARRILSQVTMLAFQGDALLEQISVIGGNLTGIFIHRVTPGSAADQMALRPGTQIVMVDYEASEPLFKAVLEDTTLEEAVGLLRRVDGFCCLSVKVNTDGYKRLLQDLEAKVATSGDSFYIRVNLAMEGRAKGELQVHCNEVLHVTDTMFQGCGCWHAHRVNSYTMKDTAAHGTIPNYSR
CARMA2shE138A (Q9BXL6-2, form named): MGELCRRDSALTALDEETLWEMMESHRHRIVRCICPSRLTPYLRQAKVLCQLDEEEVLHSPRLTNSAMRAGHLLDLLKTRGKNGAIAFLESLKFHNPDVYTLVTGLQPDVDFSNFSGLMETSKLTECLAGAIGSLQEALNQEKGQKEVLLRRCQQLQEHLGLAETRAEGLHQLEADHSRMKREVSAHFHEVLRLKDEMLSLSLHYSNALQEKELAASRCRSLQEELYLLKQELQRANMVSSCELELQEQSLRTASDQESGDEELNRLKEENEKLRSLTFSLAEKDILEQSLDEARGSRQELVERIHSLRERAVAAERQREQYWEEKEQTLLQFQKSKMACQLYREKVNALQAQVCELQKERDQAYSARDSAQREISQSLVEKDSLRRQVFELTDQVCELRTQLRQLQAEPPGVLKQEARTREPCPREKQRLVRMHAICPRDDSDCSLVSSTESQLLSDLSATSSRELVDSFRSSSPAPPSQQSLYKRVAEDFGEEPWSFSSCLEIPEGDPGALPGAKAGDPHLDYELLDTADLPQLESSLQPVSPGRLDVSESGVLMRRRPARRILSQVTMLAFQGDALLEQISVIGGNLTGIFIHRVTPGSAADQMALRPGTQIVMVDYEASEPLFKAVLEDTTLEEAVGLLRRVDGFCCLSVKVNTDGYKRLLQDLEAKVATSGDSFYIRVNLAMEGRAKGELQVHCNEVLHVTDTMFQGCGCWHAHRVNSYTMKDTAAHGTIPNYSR
CARMA2shE142G (Q9BXL6-2, form named): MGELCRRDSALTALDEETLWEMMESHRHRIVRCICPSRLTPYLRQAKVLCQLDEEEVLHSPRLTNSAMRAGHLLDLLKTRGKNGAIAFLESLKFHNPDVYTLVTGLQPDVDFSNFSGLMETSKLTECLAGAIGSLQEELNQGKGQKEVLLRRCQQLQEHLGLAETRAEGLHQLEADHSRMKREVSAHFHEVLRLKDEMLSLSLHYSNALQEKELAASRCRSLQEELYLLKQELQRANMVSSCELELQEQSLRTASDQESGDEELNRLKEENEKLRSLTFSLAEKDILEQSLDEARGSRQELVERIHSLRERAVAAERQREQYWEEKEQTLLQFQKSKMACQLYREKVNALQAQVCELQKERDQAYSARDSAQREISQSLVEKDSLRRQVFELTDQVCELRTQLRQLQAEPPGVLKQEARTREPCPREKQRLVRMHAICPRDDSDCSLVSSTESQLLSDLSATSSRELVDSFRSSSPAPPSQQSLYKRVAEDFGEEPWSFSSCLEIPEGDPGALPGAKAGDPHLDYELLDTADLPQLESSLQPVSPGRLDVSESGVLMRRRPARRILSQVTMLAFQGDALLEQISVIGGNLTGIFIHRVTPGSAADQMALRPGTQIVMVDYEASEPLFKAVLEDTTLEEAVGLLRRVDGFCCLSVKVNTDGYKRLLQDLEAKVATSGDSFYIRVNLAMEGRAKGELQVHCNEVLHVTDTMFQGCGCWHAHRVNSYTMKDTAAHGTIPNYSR
CARMA2shΔ458-500 (Q9BXL6-2, form named): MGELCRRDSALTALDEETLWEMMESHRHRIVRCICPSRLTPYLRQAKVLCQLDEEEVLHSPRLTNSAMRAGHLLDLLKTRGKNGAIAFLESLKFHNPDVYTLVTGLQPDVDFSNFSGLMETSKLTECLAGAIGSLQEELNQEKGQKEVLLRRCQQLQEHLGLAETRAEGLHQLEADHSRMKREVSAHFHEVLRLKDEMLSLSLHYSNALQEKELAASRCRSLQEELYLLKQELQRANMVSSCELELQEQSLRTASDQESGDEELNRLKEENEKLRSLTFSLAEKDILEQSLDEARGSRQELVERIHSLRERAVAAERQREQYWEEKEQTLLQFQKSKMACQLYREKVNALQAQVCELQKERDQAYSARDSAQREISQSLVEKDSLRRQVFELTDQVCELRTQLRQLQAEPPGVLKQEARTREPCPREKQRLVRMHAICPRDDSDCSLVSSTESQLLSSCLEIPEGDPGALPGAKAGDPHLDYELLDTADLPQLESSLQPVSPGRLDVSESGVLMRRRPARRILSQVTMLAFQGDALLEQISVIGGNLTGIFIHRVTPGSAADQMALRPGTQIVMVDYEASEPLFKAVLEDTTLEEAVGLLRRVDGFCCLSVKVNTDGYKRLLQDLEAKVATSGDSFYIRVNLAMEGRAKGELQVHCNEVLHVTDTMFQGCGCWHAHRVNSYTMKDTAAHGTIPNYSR

Legend:
[1] = biological target: T1, FLAG-tagged full-length ULK2 (UniProt Q8IYT8); assay: co-IP; transfection experiments with CARMA2sh mutants and ULK2 (Supplementary Figure 3); cells, tags and precipitating antibody not given
T1 sequence: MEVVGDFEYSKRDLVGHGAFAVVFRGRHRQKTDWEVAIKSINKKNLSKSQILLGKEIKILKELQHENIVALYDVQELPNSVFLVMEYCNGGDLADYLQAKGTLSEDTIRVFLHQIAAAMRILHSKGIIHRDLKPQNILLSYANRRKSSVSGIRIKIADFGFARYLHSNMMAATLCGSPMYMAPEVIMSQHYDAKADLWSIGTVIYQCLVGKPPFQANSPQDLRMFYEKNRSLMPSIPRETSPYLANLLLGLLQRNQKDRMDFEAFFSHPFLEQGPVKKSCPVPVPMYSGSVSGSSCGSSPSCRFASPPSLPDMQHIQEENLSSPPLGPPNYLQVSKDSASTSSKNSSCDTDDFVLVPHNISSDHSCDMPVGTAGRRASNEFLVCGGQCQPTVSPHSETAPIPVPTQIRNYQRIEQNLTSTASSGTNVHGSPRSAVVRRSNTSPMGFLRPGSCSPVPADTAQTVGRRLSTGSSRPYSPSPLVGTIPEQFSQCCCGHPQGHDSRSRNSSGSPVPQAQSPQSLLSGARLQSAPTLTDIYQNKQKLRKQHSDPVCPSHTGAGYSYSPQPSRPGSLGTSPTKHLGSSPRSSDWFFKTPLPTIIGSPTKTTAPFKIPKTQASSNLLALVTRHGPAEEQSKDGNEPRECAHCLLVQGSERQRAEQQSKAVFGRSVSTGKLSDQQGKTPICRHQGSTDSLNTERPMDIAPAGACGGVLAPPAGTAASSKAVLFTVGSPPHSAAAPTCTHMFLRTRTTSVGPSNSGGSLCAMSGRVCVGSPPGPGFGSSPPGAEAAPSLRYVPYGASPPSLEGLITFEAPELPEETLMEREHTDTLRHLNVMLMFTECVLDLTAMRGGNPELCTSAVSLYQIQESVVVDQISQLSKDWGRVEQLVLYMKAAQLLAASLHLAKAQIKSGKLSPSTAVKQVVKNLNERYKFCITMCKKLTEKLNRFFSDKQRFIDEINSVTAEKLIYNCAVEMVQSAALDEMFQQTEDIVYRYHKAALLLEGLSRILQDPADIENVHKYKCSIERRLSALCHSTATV

[2] = biological target: T1, FLAG-tagged full-length ULK2; assay: co-IP; HEK293T cotransfected with HA-CARMA2sh and FLAG-ULK2; lysates (150 mM NaCl, 50 mM Tris pH 7.2, 1% NP40, 2 mM EDTA) immunoprecipitated with anti-FLAG, blotted for HA-CARMA2sh; anti-myc as control antibody
[3] = biological target: GAL4BD-CARMA2sh fusion protein (human) (UniProt Q9BXL6); assay: two-hybrid; Matchmaker system, yeast AH109; bait fused to the GAL4 DNA-binding domain, ULK2 805-1036 fused to the GAL4 activating domain; growth on selective media, 10 independent transformants
[4] = biological target: HA-tagged CARMA2sh (HaCaT) (human) (UniProt Q9BXL6); assay: co-IP; HaCaT transfected with HA-CARMA2sh; lysates immunoprecipitated with anti-HA, blotted for endogenous ULK2; anti-myc as control antibody

CARMA2shE138A (from UniProt Q9BXL6-2 1-740)
binding [1]: binds

CARMA2shE142G (from UniProt Q9BXL6-2 1-740)
binding [1]: binds

CARMA2shΔ458-500 (from UniProt Q9BXL6-2 1-740)
binding [1]: binds

HA-tagged CARMA2sh (HEK293T) (from UniProt Q9BXL6-2 1-740)
binding [2]: binds

B1: ULK2 805-1036 library clone fused to the GAL4 activating domain (domain or fragment, UniProt Q8IYT8 805-1036)
chain: LITFEAPELPEETLMEREHTDTLRHLNVMLMFTECVLDLTAMRGGNPELCTSAVSLYQIQESVVVDQISQLSKDWGRVEQLVLYMKAAQLLAASLHLAKAQIKSGKLSPSTAVKQVVKNLNERYKFCITMCKKLTEKLNRFFSDKQRFIDEINSVTAEKLIYNCAVEMVQSAALDEMFQQTEDIVYRYHKAALLLEGLSRILQDPADIENVHKYKCSIERRLSALCHSTATV
binding [3]: binds

B2: endogenous ULK2 (HaCaT) (enzyme, UniProt Q8IYT8 1-1036)
chain: MEVVGDFEYSKRDLVGHGAFAVVFRGRHRQKTDWEVAIKSINKKNLSKSQILLGKEIKILKELQHENIVALYDVQELPNSVFLVMEYCNGGDLADYLQAKGTLSEDTIRVFLHQIAAAMRILHSKGIIHRDLKPQNILLSYANRRKSSVSGIRIKIADFGFARYLHSNMMAATLCGSPMYMAPEVIMSQHYDAKADLWSIGTVIYQCLVGKPPFQANSPQDLRMFYEKNRSLMPSIPRETSPYLANLLLGLLQRNQKDRMDFEAFFSHPFLEQGPVKKSCPVPVPMYSGSVSGSSCGSSPSCRFASPPSLPDMQHIQEENLSSPPLGPPNYLQVSKDSASTSSKNSSCDTDDFVLVPHNISSDHSCDMPVGTAGRRASNEFLVCGGQCQPTVSPHSETAPIPVPTQIRNYQRIEQNLTSTASSGTNVHGSPRSAVVRRSNTSPMGFLRPGSCSPVPADTAQTVGRRLSTGSSRPYSPSPLVGTIPEQFSQCCCGHPQGHDSRSRNSSGSPVPQAQSPQSLLSGARLQSAPTLTDIYQNKQKLRKQHSDPVCPSHTGAGYSYSPQPSRPGSLGTSPTKHLGSSPRSSDWFFKTPLPTIIGSPTKTTAPFKIPKTQASSNLLALVTRHGPAEEQSKDGNEPRECAHCLLVQGSERQRAEQQSKAVFGRSVSTGKLSDQQGKTPICRHQGSTDSLNTERPMDIAPAGACGGVLAPPAGTAASSKAVLFTVGSPPHSAAAPTCTHMFLRTRTTSVGPSNSGGSLCAMSGRVCVGSPPGPGFGSSPPGAEAAPSLRYVPYGASPPSLEGLITFEAPELPEETLMEREHTDTLRHLNVMLMFTECVLDLTAMRGGNPELCTSAVSLYQIQESVVVDQISQLSKDWGRVEQLVLYMKAAQLLAASLHLAKAQIKSGKLSPSTAVKQVVKNLNERYKFCITMCKKLTEKLNRFFSDKQRFIDEINSVTAEKLIYNCAVEMVQSAALDEMFQQTEDIVYRYHKAALLLEGLSRILQDPADIENVHKYKCSIERRLSALCHSTATV
binding [4]: binds
